Data on 5 molecules can be found in publication PMC5535931.

Sequences of proteins named here, by UniProt entry; tags and fusion partners are left off.
UniProt Q15910: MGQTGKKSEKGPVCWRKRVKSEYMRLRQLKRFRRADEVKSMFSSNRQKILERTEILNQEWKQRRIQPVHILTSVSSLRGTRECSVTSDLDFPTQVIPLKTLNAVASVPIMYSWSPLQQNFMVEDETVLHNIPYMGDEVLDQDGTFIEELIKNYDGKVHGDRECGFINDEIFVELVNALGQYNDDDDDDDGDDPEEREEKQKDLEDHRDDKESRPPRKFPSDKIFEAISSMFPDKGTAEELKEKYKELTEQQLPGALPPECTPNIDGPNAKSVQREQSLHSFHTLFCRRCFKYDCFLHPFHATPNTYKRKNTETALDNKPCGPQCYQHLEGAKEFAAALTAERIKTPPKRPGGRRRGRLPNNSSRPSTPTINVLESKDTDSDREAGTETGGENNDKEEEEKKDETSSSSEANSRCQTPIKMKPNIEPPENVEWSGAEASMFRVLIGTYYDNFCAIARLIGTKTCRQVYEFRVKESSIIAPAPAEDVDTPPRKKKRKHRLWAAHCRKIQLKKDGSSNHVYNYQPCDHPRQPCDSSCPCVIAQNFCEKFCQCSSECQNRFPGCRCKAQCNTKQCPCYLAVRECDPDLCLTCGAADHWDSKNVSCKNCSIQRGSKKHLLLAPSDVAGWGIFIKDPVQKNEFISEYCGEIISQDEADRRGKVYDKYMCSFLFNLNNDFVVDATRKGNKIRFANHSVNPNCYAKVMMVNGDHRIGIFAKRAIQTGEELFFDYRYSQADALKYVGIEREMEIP

The target of test [1] is EZH2 (Enhancer of zeste homology 2) (human (endogenous in HL-60)) (UniProt Q15910). Nature of the test: affinity purification with mass spectrometry; immunoprecipitation of native, untagged EZH2 from HL-60 lysates (untreated, or stimulated with 0.1 µM AtRA) with anti-EZH2 antibodies (Abcam ab186006; Cell Signaling clone AC22) on protein A/G magnetic beads, overnight at 4 °C, against IgG isotype controls; LC-MS/MS; hits filtered by fold change over IgG, CRAPome and SAINTexpress.

The target in test [2] is EZH2 (Enhancer of zeste homology 2) (human (endogenous in HL-60)), Q15910. The description is as above. The following applies: remark: other sources report otherwise.

No constants are given. Whether binding was seen depends on the method and setting. Binding seen in cells or lysates may run through a third protein. Here binding means that the protein was enriched with, or labelled near, the bait; the list need not be complete. For some assays here: Sequences can lack the tags named with a protein.

B1: MTDH (protein, UniProt Q86UE4 1-582)
chain: MAARSWQDELAQQAEEGSARLREMLSVGLGFLRTELGLDLGLEPKRYPGWVILVGTGALGLLLLFLLGYGWAAACAGARKKRRSPPRKREEAAAVPAAAPDDLALLKNLRSEEQKKKNRKKLSEKPKPNGRTVEVAEGEAVRTPQSVTAKQPPEIDKKNEKSKKNKKKSKSDAKAVQNSSRHDGKEVDEGAWETKISHREKRQQRKRDKVLTDSGSLDSTIPGIENTITVTTEQLTTASFPVGSKKNKGDSHLNVQVSNFKSGKGDSTLQVSSGLNENLTVNGGGWNEKSVKLSSQISAGEEKWNSVSPASAGKRKTEPSAWSQDTGDANTNGKDWGRSWSDRSIFSGIGSTAEPVSQSTTSDYQWDVSRNQPYIDDEWSGLNGLSSADPNSDWNAPAEEWGNWVDEERASLLKSQEPIPDDQKVSDDDKEKGEGALPTGKSKKKKKKKKKQGEDNSTAQDTEELEKEIREDLPVNTSKTRPKQEKAFSLKTISTSDPAEVLVKNSQPIKTLPPATSTEPSVILSKSDSDKSSSQVPPILQETDKSKSNTKQNSVPPSQTKSETSWESPKQIKKKKKARRET
Regarding B1, the binding entry in test [1] was “binds”.

B2: NONO (protein, UniProt Q15233 1-471)
chain: MQSNKTFNLEKQNHTPRKHHQHHHQQQHHQQQQQQPPPPPIPANGQQASSQNEGLTIDLKNFRKPGEKTFTQRSRLFVGNLPPDITEEEMRKLFEKYGKAGEVFIHKDKGFGFIRLETRTLAEIAKVELDNMPLRGKQLRVRFACHSASLTVRNLPQYVSNELLEEAFSVFGQVERAVVIVDDRGRPSGKGIVEFSGKPAARKALDRCSEGSFLLTTFPRPVTVEPMDQLDDEEGLPEKLVIKNQQFHKEREQPPRFAQPGSFEYEYAMRWKALIEMEKQQQDQVDRNIKEAREKLEMEMEAARHEHQVMLMRQDLMRRQEELRRMEELHNQEVQKRKQLELRQEEERRRREEEMRRQQEEMMRRQQEGFKGTFPDAREQEIRMGQMAMGGAMGINNRGAMPPAPVPAGTPAPPGPATMMPDGTLGLTPPTTERFGQAATMEGIGAIGGTPPAFNRAAPGAEFAPNKRRRY
Take B2: the binding result in test [1] was “binds”.

B3: EZH1, Q92800 1-747 (protein)
chain: MEIPNPPTSKCITYWKRKVKSEYMRLRQLKRLQANMGAKALYVANFAKVQEKTQILNEEWKKLRVQPVQSMKPVSGHPFLKKCTIESIFPGFASQHMLMRSLNTVALVPIMYSWSPLQQNFMVEDETVLCNIPYMGDEVKEEDETFIEELINNYDGKVHGEEEMIPGSVLISDAVFLELVDALNQYSDEEEEGHNDTSDGKQDDSKEDLPVTRKRKRHAIEGNKKSSKKQFPNDMIFSAIASMFPENGVPDDMKERYRELTEMSDPNALPPQCTPNIDGPNAKSVQREQSLHSFHTLFCRRCFKYDCFLHPFHATPNVYKRKNKEIKIEPEPCGTDCFLLLEGAKEYAMLHNPRSKCSGRRRRRHHIVSASCSNASASAVAETKEGDSDRDTGNDWASSSSEANSRCQTPTKQKASPAPPQLCVVEAPSEPVEWTGAEESLFRVFHGTYFNNFCSIARLLGTKTCKQVFQFAVKESLILKLPTDELMNPSQKKKRKHRLWAAHCRKIQLKKDNSSTQVYNYQPCDHPDRPCDSTCPCIMTQNFCEKFCQCNPDCQNRFPGCRCKTQCNTKQCPCYLAVRECDPDLCLTCGASEHWDCKVVSCKNCSIQRGLKKHLLLAPSDVAGWGTFIKESVQKNEFISEYCGELISQDEADRRGKVYDKYMSSFLFNLNNDFVVDATRKGNKIRFANHSVNPNCYAKVVMVNGDHRIGIFAKRAIQAGEELFFDYRYSQADALKYVGIERETDVL
Consider B3, for which the binding result in test [2] was “binds”.

B4: LUC7L3 (protein, UniProt O95232 1-432)
chain: MISAAQLLDELMGRDRNLAPDEKRSNVRWDHESVCKYYLCGFCPAELFTNTRSDLGPCEKIHDENLRKQYEKSSRFMKVGYERDFLRYLQSLLAEVERRIRRGHARLALSQNQQSSGAAGPTGKNEEKIQVLTDKIDVLLQQIEELGSEGKVEEAQGMMKLVEQLKEERELLRSTTSTIESFAAQEKQMEVCEVCGAFLIVGDAQSRVDDHLMGKQHMGYAKIKATVEELKEKLRKRTEEPDRDERLKKEKQEREEREKEREREREERERKRRREEEEREKERARDRERRKRSRSRSRHSSRTSDRRCSRSRDHKRSRSRERRRSRSRDRRRSRSHDRSERKHRSRSRDRRRSKSRDRKSYKHRSKSRDREQDRKSKEKEKRGSDDKKSSVKSGSREKQSEDTNTESKESDTKNEVNGTSEDIKSEGDTQSN
Regarding B4, in test [1], the binding entry is reported as “binds”.

B5: ILF3 (protein, UniProt Q12906 1-894)
chain: MRPMRIFVNDDRHVMAKHSSVYPTQEELEAVQNMVSHTERALKAVSDWIDEQEKGSSEQAESDNMDVPPEDDSKEGAGEQKTEHMTRTLRGVMRVGLVAKGLLLKGDLDLELVLLCKEKPTTALLDKVADNLAIQLAAVTEDKYEILQSVDDAAIVIKNTKEPPLSLTIHLTSPVVREEMEKVLAGETLSVNDPPDVLDRQKCLAALASLRHAKWFQARANGLKSCVIVIRVLRDLCTRVPTWGPLRGWPLELLCEKSIGTANRPMGAGEALRRVLECLASGIVMPDGSGIYDPCEKEATDAIGHLDRQQREDITQSAQHALRLAAFGQLHKVLGMDPLPSKMPKKPKNENPVDYTVQIPPSTTYAITPMKRPMEEDGEEKSPSKKKKKIQKKEEKAEPPQAMNALMRLNQLKPGLQYKLVSQTGPVHAPIFTMSVEVDGNSFEASGPSKKTAKLHVAVKVLQDMGLPTGAEGRDSSKGEDSAEETEAKPAVVAPAPVVEAVSTPSAAFPSDATAEQGPILTKHGKNPVMELNEKRRGLKYELISETGGSHDKRFVMEVEVDGQKFQGAGSNKKVAKAYAALAALEKLFPDTPLALDANKKKRAPVPVRGGPKFAAKPHNPGFGMGGPMHNEVPPPPNLRGRGRGGSIRGRGRGRGFGGANHGGYMNAGAGYGSYGYGGNSATAGYSQFYSNGGHSGNASGGGGGGGGGSSGYGSYYQGDNYNSPVPPKHAGKKQPHGGQQKPSYGSGYQSHQGQQQSYNQSPYSNYGPPQGKQKGYNHGQGSYSYSNSYNSPGGGGGSDYNYESKFNYSGSGGRSGGNSYGSGGASYNPGSHGGYGGGSGGGSSYQGKQGGYSQSNYNSPGSGQNYSGPPSSYQSSQGGYGRNADHSMNYQYR
In the case of B5, in test [1], the binding entry is recorded as “binds”.
